According to PubChem BioAssay AID2685 (National Center for Advancing Translational Sciences (NCATS), 2010):
Some of the results follow. The main result of the screen is listed elsewhere. These columns were measured beside it and carry no call. The list favours compounds with an active or inconclusive main result. Potencies come from curve fits of mixed quality, noted in brackets.

Assay: qHTS Assay for Lipid Storage Modulators in Drosophila S3 Cells;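 as to cell number change: cells counted by Cell Tracker Red CMTPX staining in the red channel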
Conditions: BODIPY lipid droplet fluorescence, 18-24 h; for cell number change: measured here: cell count max response, cells fed with added oleic acid
Summary of the method: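 Laser-scanning cytometry quantifies lipid droplet accumulation (500–530 nm total intensity; droplet/cell object ratio) in oleic acid-fed (400 uM added) Drosophila S3 cells treated with a concentration series. 20 uM Triacsin C defined 100% inhibition.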

[1] = measured here: cell number channel AC50, cells fed with added oleic acid
[2] = measured here: lipid fluorescence (Fed channel) AC50, cells fed with added oleic acid

| SMILES | cell number change [%] | AC50 [1] | AC50 [2] |
| --- | --- | --- | --- |
| CCC(CC)C(=O)OCC(=O)Nc1cc(OC)c([N+](=O)[O-])cc1C | -0.148 | 6.51 µM [rising, single point] |  |
| CC1(C)CC(=O)C(C=NCCCN2CCCC2=O)=C(O)C1 | -7.18 |  |  |
| S=c1[nH]nc(-c2ccc(Br)cc2)n1Cc1ccccc1 | -36.5 | 29.1 µM [falling, single point] | 20.6 µM [falling, single point] |
| CCCNC(=S)NC1CC2CCC(C1)N2Cc1ccccc1 (stereo not given) | 3.17 |  |  |
| CC(C)CCN(C(=O)c1ccc(Br)cc1)c1c(N)n(Cc2ccccc2)c(=O)[nH]c1=O | -2.61 |  | 29.1 µM [rising, single point] |
| COc1ccc(S(=O)(=O)n2cnc3cc(C)c(C)cc32)cc1C |  | 0.411 µM [rising, full curve] | 0.82 µM [rising, partial curve] |
| CCN1CCN(c2nc(S(=O)(=O)c3ccc(C)cc3)c(Cl)s2)CC1 |  |  | 13 µM [rising, partial curve, poor fit] |
| CN(C(=O)COC(=O)Cc1c(Cl)cccc1Cl)c1c(N)n(Cc2ccccc2)c(=O)[nH]c1=O | 6.21 | 0.0291 µM [rising, full curve, poor fit] |  |
| CN(C)C(=O)c1c(C(F)(F)F)nn(C)c1Cl | -38.6 | 20.6 µM [falling, single point] | 0.58 µM [falling, single point] |
| COc1ccc(/C(=N/Nc2ncnc3ccccc23)C(=O)O)cc1 | 6.35 |  | 29.1 µM [rising, single point] |
| CC(=O)N/C(=C\c1ccccc1)C(=O)OCc1ccc(C)cc1 | 43.2 | 23.1 µM [rising, single point] | 25.9 µM [rising, single point] |
| CC1=C(C(=O)OC(C)C)C(c2ccncc2)n2ncnc2N1 (stereo not given) |  | 0.184 µM [rising, full curve, poor fit] |  |
| CC1(C)CC(=O)C2=C(C1)OC(N)=C(C#N)C21CCC2(CC1)OCCO2 |  | 0.184 µM [rising, partial curve, poor fit] | 6.51 µM [rising, single point] |
| O=C(Nc1ccc(F)cc1)OCCOc1ccc(Br)cc1 | -11.9 |  | 0.00411 µM [rising, full curve, poor fit] |
| CNC(=O)/C(C#N)=C/c1cn(CC(=O)NCc2ccco2)c2ccccc12 | -7.79 |  |  |
| O=C(COC(=O)c1cc(Br)ccc1Cl)NC(=O)NCc1ccccc1 | 2.22 |  | 0.13 µM [falling, full curve, poor fit] |

An excerpt from above in order of number of heavy atoms, falling.

| SMILES | cell number change [%] | AC50 [1] | AC50 [2] |
| --- | --- | --- | --- |
| CN(C(=O)COC(=O)Cc1c(Cl)cccc1Cl)c1c(N)n(Cc2ccccc2)c(=O)[nH]c1=O | 6.21 | 0.0291 µM [rising, full curve, poor fit] |  |
| CCCNC(=S)NC1CC2CCC(C1)N2Cc1ccccc1 (stereo not given) | 3.17 |  |  |
| S=c1[nH]nc(-c2ccc(Br)cc2)n1Cc1ccccc1 | -36.5 | 29.1 µM [falling, single point] | 20.6 µM [falling, single point] |
